Structures can show the parent of a compound that is named as a salt. Some entries share one result that the patent states for a list of compounds.
Target: T1, V1a receptor (Rattus norvegicus, UniProt P30560)
T1 construct: from tissue; host or cells: whole animal: awake male Sprague-Dawley rats
Assay: V1a receptor antagonism in awake rat (oral administration), inhibition of AVP-induced vasopressure
Assay type: in vivo
Conditions: 1 to 8 hours after administration
Method: One day before evaluation of test compounds, a cannula for blood pressure measurement was inserted into left carotid artery, and a cannula for arginine vasopressin (AVP) administration was inserted into left cervical vein. Blood pressure of artery cannula was measured via pressure transducer during rats were awake. During evaluation of test compounds, elevation breadth of mean blood pressure resulting from intravenous administration of 30 mU/kg of AVP was determined as a vasopressure control, in advance. After test compound was suspended in 0.5% methylcellulose solution and orally administered at 1 to 3 mg/kg, 30 mU/kg of AVP was intravenously administered at fixed time points from 0.5 to 8 hours, and vasopressure value was measured. [Vasopressure inhibition rate (%) at each measurement point after administration]=[(A−B)/A]×100 Wherein, control vasopressure=A, and vasopressure value at each measurement point=B

Sequences of proteins named here, by UniProt entry; tags and fusion partners are left off.
UniProt P30560, whole entry: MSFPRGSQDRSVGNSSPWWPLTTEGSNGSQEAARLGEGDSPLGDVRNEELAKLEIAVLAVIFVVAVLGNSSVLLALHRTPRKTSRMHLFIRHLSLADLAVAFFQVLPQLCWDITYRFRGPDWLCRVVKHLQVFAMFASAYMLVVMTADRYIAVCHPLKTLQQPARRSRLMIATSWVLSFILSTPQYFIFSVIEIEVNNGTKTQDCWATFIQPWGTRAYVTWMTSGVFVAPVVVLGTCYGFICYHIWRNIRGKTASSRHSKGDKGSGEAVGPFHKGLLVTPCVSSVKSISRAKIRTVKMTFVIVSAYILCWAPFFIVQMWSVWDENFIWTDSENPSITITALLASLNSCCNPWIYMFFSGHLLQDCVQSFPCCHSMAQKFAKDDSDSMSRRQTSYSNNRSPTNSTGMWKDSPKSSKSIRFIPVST

## CCCN(C)CCCCOc1cc(C(=O)N2CC[C@H](C)Nc3ccccc32)ccc1-c1ccc2[nH]ccc2c1 [117 fumarate]
  vasopressure inhibition rate maintained after 1 to 8 hours since administration: ≥ 50%

— patent US20080076760A1, “2,3,4,5-TETRAHYDRO-1H-1,5-BENZODIAZEPINE DERIVATIVE AND MEDICINAL COMPOSITION” (priority 2004, published 2008)
